Laboratory results reported in publication PMC9173812 (Proceedings of the National Academy of Sciences of the …, 2022).

Test system: acetic acid-induced writhing
Experiment: Acetic acid-induced writhing test
Type: in vivo
Conditions: 3 mg/kg, s.c.; mice

CN1CC[C@]23c4c5ccc(O)c4O[C@H]2[C@@H](O)C=C[C@H]3[C@H]1C5 [morphine]
inhibition of the writhing assay response: full inhibition
